Results reported in article PMC9334269.
No constants are given. Whether binding was seen depends on the method and setting. Binding seen in cells or lysates may run through a third protein. Some results given as binding are weak or reduced against the parent protein; the word gives no strength.

The chains behind the UniProt entries cited, without tags or fusion partners. Where a name states a change or a piece, a line headed by the entry shows the natural chain unless it says otherwise. Residues count along the entry.
UniProt Q86WV6: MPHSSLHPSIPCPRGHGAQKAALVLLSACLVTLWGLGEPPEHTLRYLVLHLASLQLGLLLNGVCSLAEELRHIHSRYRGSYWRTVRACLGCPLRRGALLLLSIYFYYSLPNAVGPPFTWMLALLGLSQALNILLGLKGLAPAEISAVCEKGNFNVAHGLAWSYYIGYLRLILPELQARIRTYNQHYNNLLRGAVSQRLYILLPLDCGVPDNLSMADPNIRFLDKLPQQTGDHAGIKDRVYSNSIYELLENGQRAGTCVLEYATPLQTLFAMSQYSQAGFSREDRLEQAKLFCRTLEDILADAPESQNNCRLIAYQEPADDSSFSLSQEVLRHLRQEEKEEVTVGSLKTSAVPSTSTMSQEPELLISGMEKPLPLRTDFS
STING1 CBD-Flag (amino acids 180-340): residues 180-340 of Q86WV6
UniProt Q13772: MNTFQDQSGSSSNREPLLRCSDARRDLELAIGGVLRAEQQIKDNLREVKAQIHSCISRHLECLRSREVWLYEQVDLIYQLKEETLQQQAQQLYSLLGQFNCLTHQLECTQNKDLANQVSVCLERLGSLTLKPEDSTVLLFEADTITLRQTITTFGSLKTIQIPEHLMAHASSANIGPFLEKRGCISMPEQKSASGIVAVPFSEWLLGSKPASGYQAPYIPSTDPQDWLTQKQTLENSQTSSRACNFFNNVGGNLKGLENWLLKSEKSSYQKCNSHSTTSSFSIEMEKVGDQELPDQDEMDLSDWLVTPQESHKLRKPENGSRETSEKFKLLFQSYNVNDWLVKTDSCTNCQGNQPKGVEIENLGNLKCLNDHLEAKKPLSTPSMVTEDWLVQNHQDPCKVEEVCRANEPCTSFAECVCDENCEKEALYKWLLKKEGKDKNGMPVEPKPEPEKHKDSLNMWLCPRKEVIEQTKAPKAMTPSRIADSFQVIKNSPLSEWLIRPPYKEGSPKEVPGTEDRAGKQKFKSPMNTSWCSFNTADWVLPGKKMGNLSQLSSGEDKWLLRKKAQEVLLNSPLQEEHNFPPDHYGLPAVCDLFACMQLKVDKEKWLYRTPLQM
NCOA4 1-245-Myc (CC fragment of NCOA4): residues 1-245 of Q13772

Legend:
[1] = molecular target: STING1-Flag (Flag-tagged full-length STING) (UniProt Q86WV6); experiment: co-IP; HEK293T cells with Flag-tagged full-length or truncated STING and FL NCOA4-Myc (Supplementary Fig. S5E); antibody used for the IP not told
[2] = molecular target: STING1 CBD-Flag (amino acids 180-340) (UniProt Q86WV6); experiment: co-IP; HEK293T cells co-transfected; cleared lysate, IP with anti-Flag (STING as bait) overnight at 4 °C, protein A/G agarose, three washes with lysis buffer, immunoblot
[3] = molecular target: STING1-Flag (Flag-tagged full-length STING) (UniProt Q86WV6); experiment: as above
[4] = molecular target: NCOA4 1-245-Myc (CC fragment of NCOA4) (human) (UniProt Q13772); experiment: co-IP; HEK293T cells overexpressing Myc-tagged NCOA4 fragments and Flag-tagged STING1; Myc IP from lysates, immunoblot
HA-tagged NCOA4 (human) = HA-tagged NCOA4 (human) (UniProt Q13772); experiment: co-IP; HEK293T cells co-transfected with Flag-STING and HA-NCOA4; IP with anti-HA (NCOA4 as bait), protein A/G agarose, immunoblot

Which binding [1] does the source give for “FL NCOA4-Myc (full-length human NCOA4, Myc-tagged) (from UniProt Q13772-1 1-614)” here?
Its binding is “binds”.

With “HA-tagged NCOA4 (from UniProt Q13772-1 1-614)” as the substance, how does the binding [2] read?
The binding was “binds”.

What about the binding [3] of the same substance?
The binding was “binds”.

With “STING1-Flag (Flag-tagged full-length STING) (from UniProt Q86WV6 1-379)” as the substance, how does the binding [4] read?
The binding was “binds”.

And the binding (HA-tagged NCOA4 (human))?
The binding was “binds”.
